For at least one compound, name, drawing or mass did not settle the structure.
Experiments:
MC38 cells = assay: In vitro gene regulation by R848 NE, IVM NE, R848-IVM NE; type: cell-based, murine; settings: 8 μM, 24 hours
RAW 264.7 cells = assay: In vitro macrophage stimulation imaging; type: cell-based, murine; settings: R848 50 μM, SD-101 300 nM; 200× brightfield

With `CCOCc1nc2c(N)nc3ccccc3c2n1CC(C)(C)O` [R848, Resiquimod] the “Hmgb1 mRNA” value (MC38 cells) was “Hmgb1 downregulation” and the “morphological changes of RAW 264.7 (macrophage activation)” value (RAW 264.7 cells) was “partially activated macrophages”.

— patent publication US20250235403A1, “COMPOSITIONS AND METHODS OF THE DELIVERY OF ACTIVE AGENTS INCLUDING NUCLEIC ACIDS” (Ohio State Innovation Foundation, priority 2021, published 2025)
